Results taken from the supplement of paper PMC7666118.
Some of the results follow.

By UniProt entry, the sequences of proteins in these tests, tags left out. Where a name states a change or a piece, a line headed by the entry shows the natural chain unless it says otherwise.
UniProt Q9UI09, whole entry: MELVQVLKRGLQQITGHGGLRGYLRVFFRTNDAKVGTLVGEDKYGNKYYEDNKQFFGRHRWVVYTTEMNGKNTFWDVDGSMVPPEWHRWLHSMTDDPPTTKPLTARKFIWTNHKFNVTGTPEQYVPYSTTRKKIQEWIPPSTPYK
UniProt O95167, whole entry: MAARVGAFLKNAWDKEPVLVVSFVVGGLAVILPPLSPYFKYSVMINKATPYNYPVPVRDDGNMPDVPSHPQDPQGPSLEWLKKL
UniProt P13995: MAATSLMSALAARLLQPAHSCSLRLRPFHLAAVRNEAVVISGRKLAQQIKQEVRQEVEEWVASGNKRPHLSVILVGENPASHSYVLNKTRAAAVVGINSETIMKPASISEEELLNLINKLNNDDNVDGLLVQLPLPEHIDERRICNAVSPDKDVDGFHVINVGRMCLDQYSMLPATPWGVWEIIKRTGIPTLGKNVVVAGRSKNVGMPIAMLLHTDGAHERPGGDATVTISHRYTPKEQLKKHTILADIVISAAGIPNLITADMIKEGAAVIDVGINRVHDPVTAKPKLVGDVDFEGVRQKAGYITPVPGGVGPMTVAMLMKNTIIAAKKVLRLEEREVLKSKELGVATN
UniProt Q9UMS0: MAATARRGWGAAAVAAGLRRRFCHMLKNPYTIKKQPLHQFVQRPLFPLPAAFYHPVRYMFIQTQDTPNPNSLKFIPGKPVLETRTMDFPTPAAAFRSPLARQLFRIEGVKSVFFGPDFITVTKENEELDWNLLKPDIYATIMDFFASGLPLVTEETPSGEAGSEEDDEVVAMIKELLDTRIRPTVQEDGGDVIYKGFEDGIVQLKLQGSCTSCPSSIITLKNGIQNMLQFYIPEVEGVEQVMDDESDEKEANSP
UniProt Q8NHV4, whole entry: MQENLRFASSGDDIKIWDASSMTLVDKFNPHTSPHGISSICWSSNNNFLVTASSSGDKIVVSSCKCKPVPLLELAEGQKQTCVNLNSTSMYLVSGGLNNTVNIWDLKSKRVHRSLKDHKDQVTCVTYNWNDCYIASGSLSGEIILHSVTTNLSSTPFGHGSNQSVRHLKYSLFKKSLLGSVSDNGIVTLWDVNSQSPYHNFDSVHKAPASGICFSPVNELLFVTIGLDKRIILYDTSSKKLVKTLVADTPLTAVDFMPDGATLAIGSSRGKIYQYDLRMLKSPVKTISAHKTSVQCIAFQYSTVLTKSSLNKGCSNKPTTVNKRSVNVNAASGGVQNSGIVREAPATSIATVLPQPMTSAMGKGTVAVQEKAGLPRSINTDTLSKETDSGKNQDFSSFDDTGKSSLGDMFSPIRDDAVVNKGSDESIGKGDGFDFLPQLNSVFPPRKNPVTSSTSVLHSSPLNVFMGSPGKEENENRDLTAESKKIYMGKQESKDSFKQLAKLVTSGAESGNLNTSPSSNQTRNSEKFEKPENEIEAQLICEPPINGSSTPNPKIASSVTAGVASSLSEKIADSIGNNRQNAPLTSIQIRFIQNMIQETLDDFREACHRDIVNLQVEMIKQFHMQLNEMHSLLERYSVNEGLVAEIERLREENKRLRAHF
UniProt Q8TBE9: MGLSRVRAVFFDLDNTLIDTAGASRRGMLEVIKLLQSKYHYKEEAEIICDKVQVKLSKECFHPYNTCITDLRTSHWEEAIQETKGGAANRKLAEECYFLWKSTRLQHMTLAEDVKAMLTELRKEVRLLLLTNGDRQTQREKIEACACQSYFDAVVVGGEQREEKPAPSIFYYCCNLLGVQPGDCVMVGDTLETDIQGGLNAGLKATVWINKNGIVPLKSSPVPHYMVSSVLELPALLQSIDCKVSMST
UniProt O75414: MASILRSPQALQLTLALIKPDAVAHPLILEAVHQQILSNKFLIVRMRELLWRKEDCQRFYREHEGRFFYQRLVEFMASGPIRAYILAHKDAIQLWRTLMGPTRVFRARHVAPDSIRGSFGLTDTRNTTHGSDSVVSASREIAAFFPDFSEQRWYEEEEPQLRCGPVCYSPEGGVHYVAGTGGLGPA
UniProt A2RRP1: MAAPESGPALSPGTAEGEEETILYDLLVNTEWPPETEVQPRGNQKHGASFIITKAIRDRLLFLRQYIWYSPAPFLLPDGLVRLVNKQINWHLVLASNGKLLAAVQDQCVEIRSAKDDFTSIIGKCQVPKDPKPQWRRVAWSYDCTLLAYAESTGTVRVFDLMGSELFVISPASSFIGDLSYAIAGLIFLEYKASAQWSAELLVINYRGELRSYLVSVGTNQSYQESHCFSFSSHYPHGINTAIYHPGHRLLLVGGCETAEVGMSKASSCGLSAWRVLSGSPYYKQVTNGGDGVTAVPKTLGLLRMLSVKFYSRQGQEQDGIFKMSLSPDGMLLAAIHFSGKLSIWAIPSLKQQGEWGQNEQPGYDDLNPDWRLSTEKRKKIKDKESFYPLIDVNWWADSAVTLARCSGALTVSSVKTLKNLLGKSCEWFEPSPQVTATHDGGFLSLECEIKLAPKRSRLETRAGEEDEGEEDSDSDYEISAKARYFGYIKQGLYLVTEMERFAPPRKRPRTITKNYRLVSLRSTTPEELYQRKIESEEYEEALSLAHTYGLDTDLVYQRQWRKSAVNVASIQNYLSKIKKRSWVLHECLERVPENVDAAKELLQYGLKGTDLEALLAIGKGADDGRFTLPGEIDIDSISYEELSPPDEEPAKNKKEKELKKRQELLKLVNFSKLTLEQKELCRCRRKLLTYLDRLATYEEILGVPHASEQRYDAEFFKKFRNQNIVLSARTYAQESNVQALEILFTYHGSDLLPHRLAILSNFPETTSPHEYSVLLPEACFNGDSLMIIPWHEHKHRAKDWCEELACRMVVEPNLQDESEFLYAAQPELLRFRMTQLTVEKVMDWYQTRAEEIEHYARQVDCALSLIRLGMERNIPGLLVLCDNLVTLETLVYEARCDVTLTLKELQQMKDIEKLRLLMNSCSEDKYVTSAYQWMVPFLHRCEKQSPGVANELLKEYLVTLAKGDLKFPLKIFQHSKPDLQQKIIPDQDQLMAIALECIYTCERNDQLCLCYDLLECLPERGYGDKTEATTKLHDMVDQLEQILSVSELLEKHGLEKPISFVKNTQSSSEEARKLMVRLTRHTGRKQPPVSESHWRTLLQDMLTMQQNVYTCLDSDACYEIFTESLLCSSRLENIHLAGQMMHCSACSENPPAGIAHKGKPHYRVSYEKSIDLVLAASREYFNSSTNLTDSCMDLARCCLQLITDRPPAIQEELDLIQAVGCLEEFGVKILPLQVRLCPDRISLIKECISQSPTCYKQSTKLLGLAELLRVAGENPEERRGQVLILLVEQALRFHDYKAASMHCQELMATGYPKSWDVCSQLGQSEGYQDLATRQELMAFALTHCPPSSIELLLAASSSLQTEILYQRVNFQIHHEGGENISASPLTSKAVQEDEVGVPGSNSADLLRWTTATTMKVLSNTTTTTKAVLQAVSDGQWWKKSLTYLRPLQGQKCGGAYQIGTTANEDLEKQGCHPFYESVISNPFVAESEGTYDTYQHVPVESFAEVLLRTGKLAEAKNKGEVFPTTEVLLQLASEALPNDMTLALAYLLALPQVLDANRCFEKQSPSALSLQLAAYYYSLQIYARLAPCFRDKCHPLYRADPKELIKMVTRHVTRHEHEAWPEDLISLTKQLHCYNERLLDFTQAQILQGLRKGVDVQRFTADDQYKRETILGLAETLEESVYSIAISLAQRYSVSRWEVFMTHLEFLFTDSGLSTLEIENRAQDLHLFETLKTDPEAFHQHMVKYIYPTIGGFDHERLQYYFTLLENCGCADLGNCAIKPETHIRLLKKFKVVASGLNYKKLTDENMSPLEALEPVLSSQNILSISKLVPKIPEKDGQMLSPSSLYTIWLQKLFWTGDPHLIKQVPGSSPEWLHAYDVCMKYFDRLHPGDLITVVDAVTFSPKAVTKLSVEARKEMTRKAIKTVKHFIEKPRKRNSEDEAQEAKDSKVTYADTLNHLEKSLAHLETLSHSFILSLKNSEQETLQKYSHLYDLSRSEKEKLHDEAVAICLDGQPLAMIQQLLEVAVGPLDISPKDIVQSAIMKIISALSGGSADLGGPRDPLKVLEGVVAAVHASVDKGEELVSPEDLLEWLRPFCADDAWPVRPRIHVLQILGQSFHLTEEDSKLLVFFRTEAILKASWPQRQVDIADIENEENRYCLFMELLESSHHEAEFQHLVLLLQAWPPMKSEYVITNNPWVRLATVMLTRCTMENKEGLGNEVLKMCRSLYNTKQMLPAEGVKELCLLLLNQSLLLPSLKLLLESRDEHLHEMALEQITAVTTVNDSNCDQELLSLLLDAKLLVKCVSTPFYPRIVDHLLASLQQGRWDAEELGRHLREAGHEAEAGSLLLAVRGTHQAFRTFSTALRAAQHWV
UniProt Q9Y221: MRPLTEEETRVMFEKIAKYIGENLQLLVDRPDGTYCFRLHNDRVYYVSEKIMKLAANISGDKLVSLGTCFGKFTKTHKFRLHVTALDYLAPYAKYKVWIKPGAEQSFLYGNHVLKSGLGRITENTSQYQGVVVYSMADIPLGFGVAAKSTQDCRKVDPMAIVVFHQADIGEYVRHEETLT
UniProt P53602: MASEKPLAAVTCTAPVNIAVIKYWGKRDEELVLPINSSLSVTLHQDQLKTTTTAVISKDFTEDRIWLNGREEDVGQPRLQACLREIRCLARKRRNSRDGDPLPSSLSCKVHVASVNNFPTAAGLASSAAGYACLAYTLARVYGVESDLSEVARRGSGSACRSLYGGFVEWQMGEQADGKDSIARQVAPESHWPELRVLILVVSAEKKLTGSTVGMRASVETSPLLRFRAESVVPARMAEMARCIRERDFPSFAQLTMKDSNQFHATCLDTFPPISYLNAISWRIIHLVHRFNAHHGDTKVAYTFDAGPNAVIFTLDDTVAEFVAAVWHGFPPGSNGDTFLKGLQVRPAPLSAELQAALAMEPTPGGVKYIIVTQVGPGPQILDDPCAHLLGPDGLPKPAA
UniProt Q5VVJ2: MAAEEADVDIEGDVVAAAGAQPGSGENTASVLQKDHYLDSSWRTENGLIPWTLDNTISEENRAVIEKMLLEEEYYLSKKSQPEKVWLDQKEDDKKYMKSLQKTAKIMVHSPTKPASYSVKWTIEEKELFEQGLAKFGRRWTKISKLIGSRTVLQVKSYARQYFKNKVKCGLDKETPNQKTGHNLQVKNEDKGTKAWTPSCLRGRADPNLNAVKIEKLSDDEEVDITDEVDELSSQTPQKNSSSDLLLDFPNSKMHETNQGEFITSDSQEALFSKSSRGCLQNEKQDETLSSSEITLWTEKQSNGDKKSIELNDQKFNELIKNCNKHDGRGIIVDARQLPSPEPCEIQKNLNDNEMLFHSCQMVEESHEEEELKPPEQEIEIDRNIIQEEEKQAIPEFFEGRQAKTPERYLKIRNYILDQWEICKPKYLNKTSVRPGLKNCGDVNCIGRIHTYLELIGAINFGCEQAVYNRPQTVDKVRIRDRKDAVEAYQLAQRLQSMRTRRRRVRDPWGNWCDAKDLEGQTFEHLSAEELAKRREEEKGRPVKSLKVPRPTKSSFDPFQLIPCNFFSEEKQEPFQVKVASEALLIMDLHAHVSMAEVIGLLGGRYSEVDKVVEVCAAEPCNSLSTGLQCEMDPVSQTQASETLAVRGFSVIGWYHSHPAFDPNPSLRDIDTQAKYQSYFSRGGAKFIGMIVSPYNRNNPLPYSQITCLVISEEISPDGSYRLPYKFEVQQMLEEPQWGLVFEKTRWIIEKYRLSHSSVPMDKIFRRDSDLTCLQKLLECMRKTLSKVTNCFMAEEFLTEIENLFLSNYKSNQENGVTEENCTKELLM
UniProt Q8N5Y2: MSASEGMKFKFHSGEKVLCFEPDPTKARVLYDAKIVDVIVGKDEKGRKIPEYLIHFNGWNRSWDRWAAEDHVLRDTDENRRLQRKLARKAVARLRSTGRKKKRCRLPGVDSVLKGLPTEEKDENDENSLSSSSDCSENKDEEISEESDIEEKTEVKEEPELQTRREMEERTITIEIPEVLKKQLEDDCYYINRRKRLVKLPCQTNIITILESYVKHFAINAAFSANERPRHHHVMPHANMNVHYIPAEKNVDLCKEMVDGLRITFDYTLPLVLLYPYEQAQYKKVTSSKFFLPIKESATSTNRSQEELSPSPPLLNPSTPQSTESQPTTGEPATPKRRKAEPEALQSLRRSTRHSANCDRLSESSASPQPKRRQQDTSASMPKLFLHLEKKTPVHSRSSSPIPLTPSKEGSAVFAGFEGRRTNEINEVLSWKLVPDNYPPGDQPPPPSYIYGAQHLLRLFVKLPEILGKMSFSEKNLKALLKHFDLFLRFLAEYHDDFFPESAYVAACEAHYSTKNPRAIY
UniProt Q96S97: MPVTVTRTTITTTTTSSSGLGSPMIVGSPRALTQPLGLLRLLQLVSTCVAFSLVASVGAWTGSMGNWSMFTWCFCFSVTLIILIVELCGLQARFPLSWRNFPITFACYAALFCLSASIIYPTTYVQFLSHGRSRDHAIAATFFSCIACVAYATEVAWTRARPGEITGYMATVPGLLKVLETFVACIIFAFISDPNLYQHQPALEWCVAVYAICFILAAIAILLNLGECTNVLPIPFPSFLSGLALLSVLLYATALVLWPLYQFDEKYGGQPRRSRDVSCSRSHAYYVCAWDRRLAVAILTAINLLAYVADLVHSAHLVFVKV

Compound: COc1ccc(Cn2ccc3ccc(C(=O)NO)cc32)cc1
Assay: dose-dependent thermal stabilisation call (2D-TPP, DLPTP, 10% FDR) (binary (1 = stabilised)); higher = stabilised by the compound
Settings: system: HL-60 intact cells; concentration range 0.04-10 µM

| Target | dose-dependent thermal stabilisation call |
| --- | --- |
| NDUFA12 (UniProt Q9UI09) | inactive: 0 |
| NBN (UniProt O60934) | inactive: 0 |
| NPM3 (UniProt O75607) | inactive: 0 |
| NDUFA3 (UniProt O95167) | inactive: 0 |
| MTHFD2 (UniProt P13995) | inactive: 0 |
| NDUFS6 (UniProt O75380) | inactive: 0 |
| MYH9 (UniProt P35579) | inactive: 0 |
| NFU1 (UniProt Q9UMS0) | inactive: 0 |
| NACC1 (UniProt Q96RE7) | inactive: 0 |
| NHLRC2 (UniProt Q8NBF2) | inactive: 0 |
| NEDD1 (UniProt Q8NHV4) | inactive: 0 |
| NANP (UniProt Q8TBE9) | inactive: 0 |
| MSRA (UniProt Q9UJ68) | inactive: 0 |
| NFKB1 (UniProt P19838) | inactive: 0 |
| NDUFAF1 (UniProt Q9Y375) | inactive: 0 |
| NGLY1 (UniProt Q96IV0) | inactive: 0 |
| NOTCH1 (UniProt P46531) | inactive: 0 |
| NME6 (UniProt O75414) | inactive: 0 |
| NARG1L (UniProt Q6N069) | inactive: 0 |

| Target | dose-dependent thermal stabilisation call |
| --- | --- |
| NAG (UniProt A2RRP1) | inactive: 0 |
| NIP7 (UniProt Q9Y221) | inactive: 0 |
| MTCH2 (UniProt Q9Y6C9) | inactive: 0 |
| MVD (UniProt P53602) | inactive: 0 |
| MYSM1 (UniProt Q5VVJ2) | inactive: 0 |
| NDUFB11 (UniProt Q9NX14) | inactive: 0 |
| MTO1 (UniProt Q9Y2Z2) | inactive: 0 |
| MYL6 (UniProt P60660) | inactive: 0 |
| MVK (UniProt Q03426) | inactive: 0 |
| MYO18A | inactive: 0 |
| MSL3 (UniProt Q8N5Y2) | inactive: 0 |
| NAT10 (UniProt Q9H0A0) | inactive: 0 |
| MTERFD2 (UniProt Q7Z6M4) | inactive: 0 |
| NOSIP (UniProt Q9Y314) | inactive: 0 |
| MYADM (UniProt Q96S97) | inactive: 0 |
| NFKBIB (UniProt Q15653) | inactive: 0 |
| MRS2 (UniProt Q9HD23) | inactive: 0 |
| NOL8 (UniProt Q76FK4) | inactive: 0 |

Shown field by field: part of the list above
MSL3 (UniProt Q8N5Y2)
  dose-dependent thermal stabilisation call: inactive: 0
NAT10 (UniProt Q9H0A0)
  dose-dependent thermal stabilisation call: inactive: 0
